Publication PMC8007567
These are yes or no findings as the source states them, for the method shown. In cells and extracts the contact can be indirect. Here binding means that the protein was enriched with, or labelled near, the bait; the list need not be complete. Values belong to the molecule of their own block, whether it stands above or below them.

Amino acid sequences for entries named in this document (tags omitted).
UniProt Q05639: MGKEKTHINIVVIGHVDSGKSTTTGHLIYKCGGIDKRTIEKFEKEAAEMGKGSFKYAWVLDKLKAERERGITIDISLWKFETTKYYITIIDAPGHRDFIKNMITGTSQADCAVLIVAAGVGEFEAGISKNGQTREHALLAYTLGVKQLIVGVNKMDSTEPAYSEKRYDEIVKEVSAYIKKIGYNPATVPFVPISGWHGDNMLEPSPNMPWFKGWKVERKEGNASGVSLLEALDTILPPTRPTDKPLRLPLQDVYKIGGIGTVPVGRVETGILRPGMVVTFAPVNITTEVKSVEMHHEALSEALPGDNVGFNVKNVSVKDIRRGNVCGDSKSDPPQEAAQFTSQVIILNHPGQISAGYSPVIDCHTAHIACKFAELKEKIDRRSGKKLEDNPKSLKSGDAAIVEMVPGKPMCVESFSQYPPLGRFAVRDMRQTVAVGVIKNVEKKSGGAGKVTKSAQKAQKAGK
UniProt P26641: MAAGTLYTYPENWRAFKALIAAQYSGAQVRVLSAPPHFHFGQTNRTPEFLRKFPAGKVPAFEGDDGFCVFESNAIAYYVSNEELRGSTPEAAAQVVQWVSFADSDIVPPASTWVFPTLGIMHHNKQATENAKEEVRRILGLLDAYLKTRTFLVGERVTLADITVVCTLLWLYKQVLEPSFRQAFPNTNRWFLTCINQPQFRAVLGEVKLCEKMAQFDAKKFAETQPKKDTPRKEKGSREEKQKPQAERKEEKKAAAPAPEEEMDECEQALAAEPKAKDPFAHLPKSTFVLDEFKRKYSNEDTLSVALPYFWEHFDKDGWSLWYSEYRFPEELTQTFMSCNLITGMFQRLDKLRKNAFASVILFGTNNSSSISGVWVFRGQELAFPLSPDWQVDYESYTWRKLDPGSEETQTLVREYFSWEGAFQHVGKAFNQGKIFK
UniProt P12956: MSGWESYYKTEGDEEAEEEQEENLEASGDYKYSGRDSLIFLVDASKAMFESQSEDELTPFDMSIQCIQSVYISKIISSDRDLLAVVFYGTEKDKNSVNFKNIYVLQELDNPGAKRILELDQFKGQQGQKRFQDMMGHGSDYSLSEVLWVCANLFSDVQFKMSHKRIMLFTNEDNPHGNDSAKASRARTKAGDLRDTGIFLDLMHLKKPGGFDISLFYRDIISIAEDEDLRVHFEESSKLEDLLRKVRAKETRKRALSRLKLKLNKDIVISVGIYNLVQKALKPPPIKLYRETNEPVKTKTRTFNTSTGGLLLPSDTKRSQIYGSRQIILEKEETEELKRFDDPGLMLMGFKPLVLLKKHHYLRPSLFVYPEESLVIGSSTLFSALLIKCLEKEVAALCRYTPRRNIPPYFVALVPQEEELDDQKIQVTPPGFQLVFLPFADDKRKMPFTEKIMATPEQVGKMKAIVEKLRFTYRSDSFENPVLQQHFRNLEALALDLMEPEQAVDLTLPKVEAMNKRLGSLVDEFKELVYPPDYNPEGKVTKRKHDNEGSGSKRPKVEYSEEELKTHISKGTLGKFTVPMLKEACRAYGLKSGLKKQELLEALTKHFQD
UniProt P08238: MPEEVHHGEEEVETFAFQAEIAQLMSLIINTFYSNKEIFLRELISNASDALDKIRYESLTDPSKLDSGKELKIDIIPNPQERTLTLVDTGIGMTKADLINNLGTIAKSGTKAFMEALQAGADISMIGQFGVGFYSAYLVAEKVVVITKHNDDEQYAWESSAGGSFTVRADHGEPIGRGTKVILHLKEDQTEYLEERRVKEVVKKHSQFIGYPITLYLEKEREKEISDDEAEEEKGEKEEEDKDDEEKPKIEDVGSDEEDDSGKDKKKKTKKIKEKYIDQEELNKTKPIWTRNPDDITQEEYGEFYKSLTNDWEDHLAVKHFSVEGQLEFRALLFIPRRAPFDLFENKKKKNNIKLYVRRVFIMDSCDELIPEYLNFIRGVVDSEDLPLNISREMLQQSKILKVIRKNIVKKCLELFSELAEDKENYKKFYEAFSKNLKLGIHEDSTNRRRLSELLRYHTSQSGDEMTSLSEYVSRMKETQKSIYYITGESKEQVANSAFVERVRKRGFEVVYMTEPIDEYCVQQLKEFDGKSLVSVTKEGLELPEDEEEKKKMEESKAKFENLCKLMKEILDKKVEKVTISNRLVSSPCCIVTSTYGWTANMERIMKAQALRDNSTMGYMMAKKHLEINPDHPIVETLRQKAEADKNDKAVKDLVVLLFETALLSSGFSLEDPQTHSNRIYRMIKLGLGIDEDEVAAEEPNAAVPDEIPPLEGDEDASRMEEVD

Biological target: Flag-EEF1A2 (eukaryotic protein translation elongation factor 1α2) (UniProt Q05639)
Assay: affinity purification with mass spectrometry; Flag-EEF1A2 transfected; lysate immunoprecipitated with anti-Flag agarose, SDS-PAGE, Coomassie staining, LC-MS/MS; A549 and PC9 cells by the text, 293T cells by the legend of Fig. 5a

- binding: binds
Molecule: EEF1G (from UniProt P26641 1-437)

- binding: binds
Molecule: XRCC6 (from UniProt P12956 1-609)

- binding: binds
Molecule: HSP90AB1 (from UniProt P08238 1-724)

- binding: binds
B1: EEF1B2 (protein, UniProt P24534 1-225)
chain: MGFGDLKSPAGLQVLNDYLADKSYIEGYVPSQADVAVFEAVSSPPPADLCHALRWYNHIKSYEKEKASLPGVKKALGKYGPADVEDTTGSGATDSKDDDDIDLFGSDDEEESEEAKRLREERLAQYESKKAKKPALVAKSSILLDVKPWDDETDMAKLEECVRSIQADGLVWGSSKLVPVGYGIKKLQIQCVVEDDKVGTDMLEEQITAFEDYVQSMDVAAFNKI
